Assay [1] deals with T1, endoglucanase Cel8A from C. thermocellum fused to a dockerin module of ScaA from B. cellulosolvens (C. thermocellum (catalytic module); B. cellulosolvens (dockerin)).
T1 sequence: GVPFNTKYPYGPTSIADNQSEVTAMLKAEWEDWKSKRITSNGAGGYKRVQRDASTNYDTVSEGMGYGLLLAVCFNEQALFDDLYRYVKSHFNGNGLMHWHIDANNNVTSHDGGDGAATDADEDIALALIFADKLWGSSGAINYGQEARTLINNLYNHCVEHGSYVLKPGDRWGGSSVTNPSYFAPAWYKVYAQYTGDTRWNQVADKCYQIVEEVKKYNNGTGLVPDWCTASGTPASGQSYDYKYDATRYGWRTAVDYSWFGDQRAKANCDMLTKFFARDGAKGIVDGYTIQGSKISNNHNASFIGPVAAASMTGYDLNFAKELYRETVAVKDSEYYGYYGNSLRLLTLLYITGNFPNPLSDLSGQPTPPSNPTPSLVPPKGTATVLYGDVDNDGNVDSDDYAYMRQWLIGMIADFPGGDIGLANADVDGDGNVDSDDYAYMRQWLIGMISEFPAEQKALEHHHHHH
In words: affinity-based ELISA; enzyme coated on the plate, CBM-cohesin at 0.1-1000 ng/ul, detected with anti-CBM antibody. In general terms: In an ELISA, binding on a coated surface is turned into a signal by an enzyme label.

Assay [2] concerns the target processive endoglucanase Cel9K from C. thermocellum fused to a dockerin module of ScaB from A. cellulolyticus. The assay is described as above.

This note sets out measurements from patent US20160186156A1.

Results are given in words; binding and its absence hold for the method and conditions named. Some results given as binding are weak or reduced against the parent protein; the word gives no strength. For some assays here: Where a sequence is shown, tags or fusion partners need not be part of it.

B1: CBM-Coh-Bc B3 (protein)
chain: ANTPVSGNLKVEFYNSNPSDTTNSINPQFKVTNTGSSAIDLSKLTLRYYYTVDGQKDQTFWCDHAAIIGSNGSYNGITSNVKGTFVKMSSSTNNADTYLEISFTGGTLEPGAHVQIQGRFAKNDWSNYTQSNDYSFKSASQFVEWDQVTAYLNGVLVWGKEPGGSSSPGNKMKIQIGDVKANQGDTVIVPITFNEVPVMGVNNCNFTLAYDKNIMEFISADAGDIVTLPMANYSYNMPSDGLVKFLYNDQAQGAMSIKEDGTFANVKFKIKQSAAFGKYSVGIKAIGSISALSNSKLIPIESIFKDGSITVTN
In the case of B1, the binding result in assay [1] was “binds”.

B2: CBM-CohAc C3 (protein)
chain: ANTPVSGNLKVEFYNSNPSDTTNSINPQFKVTNTGSSAIDLSKLTLRYYYTVDGQKDQTFWCDHAAIIGSNGSYNGITSNVKGTFVKMSSSTNNADTYLEISFTGGTLEPGAHVQIQGRFAKNDWSNYTQSNDYSFKSASQFVEWDQVTAYLNGVLVWGKEPGGSGSDLQVDIGSTSGKAGSVVSVPITFTNVPKSGIYALSFRTNFDPQKVTVASIDAGSLIENASDFTTYYNNENGFASMTFEAPVDRARIIDSDGVFATINFKVSDSAKVGELYNITTNSAYTSFYYSGTDEIKNVVYNDGKIEVIAS
For the molecule B2, the binding entry in assay [2] was “binds”.
